# In US20240148821A1, “PHARMACEUTICAL USE OF CYCLIC PEPTIDE COMPOUND” (CHUGAI SEIYAKU KABUSHIKI KAISHA, priority 2021, published 2024):
# Part of at least one peptide drawing is inferred or uncertain, most often the ends. Numbered stars: 1 amine (or outer) side, 2 acyl side, 3 side chain; on linkers, the order of the positions; unused ones are H or OH. Bridge positions count the residues as written; N and C are the ends. Square brackets hold non-standard residues; d marks the D form. Peptide text beside a SMILES is read from it. * marks the point of attachment. hPhe(3-F,4-CF3) = N[C@@H](CCc1ccc(C(F)(F)F)c(F)c1)C(=O)O; mXylylene = c1cc(C[*:1])cc(C[*:2])c1; oXylylene = c1ccc(C[*:2])c(C[*:1])c1; NMeCha = CN[C@@H](CC1CCCCC1)C(=O)O; cisHyp = O=C(O)[C@@H]1C[C@H](O)CN1; Hyp = O=C(O)[C@@H]1C[C@@H](O)CN1; NMeD = CN[C@@H](CC(=O)O)C(=O)O; Benzyl(4-Cl) = Clc1ccc(C*)cc1; NMeL = CN[C@@H](CC(C)C)C(=O)O; Piperidide = C1CCN(*)CC1; X57 = FC(F)Oc1ccc(C*)cc1; Ac5c = NC1(C(=O)O)CCCC1; X94 = COc1cccc(C*)c1; Meb = Cc1ccc(C*)cc1; X87 = Clc1ccccc1C*; Sar = CNCC(=O)O
# Tested on: Human pancreatic cancer cell line AsPC-1 (G12D mutation Kras)
# Experiment: AsPC-1 cell growth inhibition (AsPC-1 CGI)
# Format: cell-based
# Settings: read-out: AsPC-1 cell growth inhibition, 50% growth inhibitory concentration (IC50 value); 96 hours, CellTiter-Glo, values classified in ranges
row,Structure (SMILES),IC50
1,"CC[C@H](C)[C@@H]1NC(=O)[C@H](CC(C)C)N(C)C(=O)C[C@@H](C(=O)N2CCCCC2)N(C)C(=O)[C@H](CC(C)C)N(C)C(=O)C2(CCCC2)NC(=O)[C@@H]2C[C@H](OCc3ccc(Cl)cc3)CN2C(=O)[C@H](CCc2ccc(C(F)(F)F)c(F)c2)NC(=O)CN(C)C(=O)[C@H](CC2CCCCC2)N(C)C(=O)CN(C)C(=O)CN(C)C1=O [Compound 2129] ([NMeL]I[Sar][Sar][NMeCha][Sar][hPhe(3-F,4-CF3)][cisHyp](Benzyl(4-Cl))[Ac5c][NMeL][NMeD]-Piperidide; lactam N-11)",> 500 nM
2,"CC[C@H](C)[C@@H]1NC(=O)[C@H](CC(C)C)N(C)C(=O)C[C@@H](C(=O)N2CCCCC2)N(C)C(=O)[C@H](CC(C)C)N(C)C(=O)C2(CCCC2)NC(=O)[C@@H]2C[C@@H](OCc3ccc(C)cc3)CN2C(=O)[C@H](CCc2ccc(C(F)(F)F)c(F)c2)NC(=O)CN(C)C(=O)[C@H](CC2CCCCC2)N(C)C(=O)CN(C)C(=O)CN(C)C1=O [Compound 2130] ([NMeL]I[Sar][Sar][NMeCha][Sar][hPhe(3-F,4-CF3)][Hyp](Meb)[Ac5c][NMeL][NMeD]-Piperidide; lactam N-11)",> 500 nM
3,"CC[C@H](C)[C@@H]1NC(=O)[C@H](CC(C)C)N(C)C(=O)C[C@@H](C(=O)N2CCCCC2)N(C)C(=O)[C@H](CC(C)C)N(C)C(=O)C2(CCCC2)NC(=O)[C@@H]2C[C@H](OCc3ccccc3Cl)CN2C(=O)[C@H](CCc2ccc(C(F)(F)F)c(F)c2)NC(=O)CN(C)C(=O)[C@H](CC2CCCCC2)N(C)C(=O)CN(C)C(=O)CN(C)C1=O [Compound 2132] ([NMeL]I[Sar][Sar][NMeCha][Sar][hPhe(3-F,4-CF3)][cisHyp](X87)[Ac5c][NMeL][NMeD]-Piperidide; lactam N-11)",> 500 nM
4,"CC[C@H](C)[C@@H]1NC(=O)[C@H](CC(C)C)N(C)C(=O)C[C@@H](C(=O)N2CCCCC2)N(C)C(=O)[C@H](CC(C)C)N(C)C(=O)C2(CCCC2)NC(=O)[C@@H]2C[C@H](OCc3ccc(OC(F)F)cc3)CN2C(=O)[C@H](CCc2ccc(C(F)(F)F)c(F)c2)NC(=O)CN(C)C(=O)[C@H](CC2CCCCC2)N(C)C(=O)CN(C)C(=O)CN(C)C1=O [Compound 2135] ([NMeL]I[Sar][Sar][NMeCha][Sar][hPhe(3-F,4-CF3)][cisHyp](X57)[Ac5c][NMeL][NMeD]-Piperidide; lactam N-11)",> 500 nM
5,"CC[C@H](C)[C@@H]1NC(=O)[C@H](CC(C)C)N(C)C(=O)C[C@@H](C(=O)N2CCCCC2)N(C)C(=O)[C@H](CC(C)C)N(C)C(=O)C2(CCCC2)NC(=O)[C@@H]2C[C@H](OCc3cccc(OC)c3)CN2C(=O)[C@H](CCc2ccc(C(F)(F)F)c(F)c2)NC(=O)CN(C)C(=O)[C@H](CC2CCCCC2)N(C)C(=O)CN(C)C(=O)CN(C)C1=O [Compound 2136] ([NMeL]I[Sar][Sar][NMeCha][Sar][hPhe(3-F,4-CF3)][cisHyp](X94)[Ac5c][NMeL][NMeD]-Piperidide; lactam N-11)",> 500 nM
6,"CC[C@H](C)[C@@H]1NC(=O)[C@H](CC(C)C)N(C)C(=O)C[C@@H](C(=O)N2CCCCC2)N(C)C(=O)[C@H](CC(C)C)N(C)C(=O)C2(CCCC2)NC(=O)[C@@H]2C[C@H](OCc3ccccc3C)CN2C(=O)[C@H](CCc2ccc(C(F)(F)F)c(F)c2)NC(=O)CN(C)C(=O)[C@H](CC2CCCCC2)N(C)C(=O)CN(C)C(=O)CN(C)C1=O [Compound 2137] ([NMeL]I[Sar][Sar][NMeCha][Sar][hPhe(3-F,4-CF3)][cisHyp](oXylylene)[Ac5c][NMeL][NMeD]-Piperidide; lactam N-11)",> 500 nM
7,"CC[C@H](C)[C@@H]1NC(=O)[C@H](CC(C)C)N(C)C(=O)C[C@@H](C(=O)N2CCCCC2)N(C)C(=O)[C@H](CC(C)C)N(C)C(=O)C2(CCCC2)NC(=O)[C@@H]2C[C@H](OCc3ccc(C)cc3)CN2C(=O)[C@H](CCc2ccc(C(F)(F)F)c(F)c2)NC(=O)CN(C)C(=O)[C@H](CC2CCCCC2)N(C)C(=O)CN(C)C(=O)CN(C)C1=O [Compound 2140] ([NMeL]I[Sar][Sar][NMeCha][Sar][hPhe(3-F,4-CF3)][cisHyp](Meb)[Ac5c][NMeL][NMeD]-Piperidide; lactam N-11)",> 500 nM
8,"CC[C@H](C)[C@@H]1NC(=O)[C@H](CC(C)C)N(C)C(=O)C[C@@H](C(=O)N2CCCCC2)N(C)C(=O)[C@H](CC(C)C)N(C)C(=O)C2(CCCC2)NC(=O)[C@@H]2C[C@H](OCc3cccc(C)c3)CN2C(=O)[C@H](CCc2ccc(C(F)(F)F)c(F)c2)NC(=O)CN(C)C(=O)[C@H](CC2CCCCC2)N(C)C(=O)CN(C)C(=O)CN(C)C1=O [Compound 2141] ([NMeL]I[Sar][Sar][NMeCha][Sar][hPhe(3-F,4-CF3)][cisHyp](mXylylene)[Ac5c][NMeL][NMeD]-Piperidide; lactam N-11)",> 500 nM
